## Primary screen of a compound library

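Viability assay of Plasmodium falciparum sporozoites; the read-out is not stated. The concentration is filed as 10 mM, unlikely as a test dose, so the dose is not known. Higher reads as lower viability (inferred: compounds with an IC50 in retests scored well above the rest). Strong results were mostly tested again. Size under these conditions: about 34,000 compounds, about 280 of them at 50% or above in at least one test.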

Results are given as percent effect. How 0% and 100% were set is not recorded. Most values in the screen are low, and negative values occur. Compounds were drawn at random from those tested, without regard to their results. Two or more numbers in one place are separate tests of the same structure; such repeats can differ widely.

{"compound": "Cc1ncsc1CN1CC[C@](C)(O)[C@@H](Oc2cccc(F)c2)C1", "percent effect": 9.874}
{"compound": "COCC1CN(C(=O)c2ccco2)Cc2nccn2C1", "stereo": "stereo not shown", "percent effect": -1.476}
{"compound": "O=C(O)C(F)(F)F.O=C(O)C(F)(F)F.[H][C@@]12COC[C@H](C(=O)NCc3ccccn3)[C@]1([H])CN(Cc1ccoc1)C2", "percent effect": "-5.852 and -8.484 and 1.371"}
{"compound": "CC1CCCN(C(=O)c2csc(S(N)(=O)=O)c2)CC1", "stereo": "stereo not shown", "percent effect": -2.999}
{"compound": "O=C(O)C(F)(F)F.[H][C@@]12OCCN(C(=O)c3ccnnc3)[C@@]1([H])CC[C@H]2OCCN(C)C", "percent effect": 15.7}
{"compound": "CC(C)NC(=O)C1CN(C(=O)NCc2ccccc2)CC12CCOCC2", "stereo": "stereo not shown", "percent effect": 5.351}
{"compound": "Cn1cc(C(=O)N2CCN(Cc3cscn3)CC2)ccc1=O", "percent effect": 4.824}
{"compound": "CC1CN(S(=O)(=O)c2ccc(C(=O)NCC(F)F)cc2)CCCO1", "stereo": "stereo not shown", "percent effect": -12.25}
{"compound": "Cc1nc(C)n(CC2CCCN2CCC(=O)N2CCCCC2)n1", "stereo": "stereo not shown", "percent effect": 9.082}
{"compound": "O=C(O)C(F)(F)F.O=C(O)C(F)(F)F.[H][C@]12OCCN(C3CCOCC3)[C@@]1([H])CC[C@@H]2OCc1cccnc1", "percent effect": -6.642}
{"compound": "Cc1ccc(Nc2nccc(C3CCN(C(=O)CO)C3)n2)nc1", "stereo": "stereo not shown", "percent effect": "-6.369 and -30.39 and -30.26"}
{"compound": "Cc1ccc(C)c(-n2ncc(C(=O)N(C)CCc3ccccn3)c2N)c1", "percent effect": 2.711}
{"compound": "Cc1nc(C)n(CC2CCCN(CC(=O)NC3CCOCC3)C2)n1", "stereo": "stereo not shown", "percent effect": 8.64}
{"compound": "CCC1CN(CC(=O)N2CCC2)CCN1CCOC", "stereo": "stereo not shown", "percent effect": 14.72}
{"compound": "CSC(C)C(=O)N(C)CC(=O)Nc1ccc(Br)cn1", "stereo": "stereo not shown", "percent effect": 6.441}
{"compound": "Cl.O=C(Cc1ccc(F)cc1)N1CCN(CC(O)C2CC2)CC1", "stereo": "stereo not shown", "percent effect": "-9.344 and -1.299 and -9.228"}
{"compound": "N#Cc1cc(NC(=O)c2ccsc2)ccc1N1CCC(O)CC1", "percent effect": 0.8235}
{"compound": "COC(=O)[C@H]1CN(C(=O)c2cscn2)C[C@@H]1c1ccc(F)cc1", "percent effect": 11.5}
{"compound": "[H][C@]12CC[C@]([H])(CN(c3cnccn3)C1)N(C(=O)c1cccnc1SC)C2", "percent effect": 3.708}
{"compound": "O=C(O)C(F)(F)F.O=C(O)C(F)(F)F.[H][C@@]12C[C@H](C(=O)NC3CC3)CN(Cc3cccnc3)[C@]1([H])CCO2", "percent effect": 3.65}
{"compound": "COC(=O)N1CCCC(C(=O)NCc2cc3cccc(OC)c3o2)C1", "stereo": "stereo not shown", "percent effect": 6.661}
{"compound": "O=C(O)C(F)(F)F.O=C(O)C(F)(F)F.c1c(CN2CCCC2)nc2n1CCN(C1CCOCC1)C2", "percent effect": 14.21}
{"compound": "COc1ccc(CN2CCc3ncnc(C4CC4)c3CC2)cc1.O=C(O)C(F)(F)F", "percent effect": "-3.208 and 2.557"}
{"compound": "O=C(CCSc1ccc(F)cc1)NS(=O)(=O)c1ccc2c(c1)OCCO2", "percent effect": 10.31}
{"compound": "CSCCC(C)NC(=O)c1cccc(-c2n[nH]c(C)n2)c1", "stereo": "stereo not shown", "percent effect": -9.878}
{"compound": "[H][C@]12CCNC[C@@]1([H])OCCN(Cc1csc(C)n1)C2", "percent effect": 6.813}
{"compound": "N#Cc1ccsc1C(=O)N1CCCN(Cc2cscn2)CC1", "percent effect": 2.755}
{"compound": "CCc1nc(C2CCCN(C(=O)c3ccc(Cl)cc3)C2)no1", "stereo": "stereo not shown", "percent effect": "2.959 and 10.72 and 9.723"}
{"compound": "CCN(CC)C(=O)c1ccc(NC(=O)CNc2ccc(F)cc2Cl)cc1", "percent effect": -4.622}
{"compound": "COCc1cc(N(CC(F)F)C2CC2)n2ncnc2n1", "percent effect": -5.658}
{"compound": "NC(=O)CN1CCCC(CCCc2ccccn2)(C(N)=O)C1", "stereo": "stereo not shown", "percent effect": 9.748}
{"compound": "O=C(O)C(F)(F)F.[H][C@]12CCN(C(=O)NCC(C)C)CC[C@@]1([H])S(=O)(=O)N(Cc1cccnc1)C2", "percent effect": 8.509}
{"compound": "CS(=O)(=O)NCC1CCCN(C(=O)c2ccc3c(c2)CCC3)C1", "stereo": "stereo not shown", "percent effect": "5.727 and -0.8512"}
{"compound": "CCn1ccnc1CN1CCCN(C(=O)Cc2ccc(C)nc2)CC1", "percent effect": -18.03}
{"compound": "NC(=O)[C@@H]1Cc2ccccc2N1C(=O)C1CC(c2ccccc2)=NO1", "stereo": "stereo partly shown", "percent effect": -6.834}
{"compound": "Cc1nc(C2CCCN2Cc2ncc(C(C)C)o2)no1", "stereo": "stereo not shown", "percent effect": -17.4}
{"compound": "COCC1(C(=O)N2CCC(c3nccn3CC3CC3)CC2)CCC1", "percent effect": -3.246}
{"compound": "CC(C)c1nc(CN(C)C(=O)c2ccc3c(c2)OCO3)cs1", "percent effect": 0.4615}
{"compound": "[H][C@@]12CCC(=O)N(CCOC)[C@@]1([H])CCN2S(=O)(=O)C1CC1", "percent effect": -5.604}
{"compound": "CN(C)c1ccc(NC(=O)c2ccnn2C)nc1", "percent effect": "-37.6 and -31.87"}
{"compound": "CN(C)C(=O)COCC1CN(Cc2ccoc2)Cc2ncn(C)c21.O=C(O)C(F)(F)F.O=C(O)C(F)(F)F", "stereo": "stereo not shown", "percent effect": -4.474}
{"compound": "O=C(Nc1nc2c(s1)CCC2)c1cccnc1N1CCOCC1", "percent effect": -8.681}
{"compound": "O=C(Cn1ccc2ccc(Br)cc21)NCc1ccc(C(=O)O)cc1", "percent effect": -1.015}
{"compound": "Cc1ccc(-c2cc(C)nc(C3CCCN3S(C)(=O)=O)n2)cc1", "stereo": "stereo not shown", "percent effect": 14.26}
{"compound": "Cn1ncc2c1C(COCC1CC1)CN(C(=O)c1cscn1)C2.O=C(O)C(F)(F)F", "stereo": "stereo not shown", "percent effect": -5.113}
{"compound": "c1ccc(Oc2ncccc2CNCc2ccccn2)cc1", "percent effect": -2.959}
{"compound": "COCC(=O)N1CCC2(CC1)CN(c1ccccn1)CCO2.O=C(O)C(F)(F)F", "percent effect": 5.589}
{"compound": "CC(NC(=O)NCc1cc[nH]n1)c1ccc2c(c1)CCC(=O)N2", "stereo": "stereo not shown", "percent effect": "-7.209 and 0.8177 and -6.483"}

Repeated from the top, 3 entries:

- Cc1ncsc1CN1CC[C@](C)(O)[C@@H](Oc2cccc(F)c2)C1 : 9.874%
- COCC1CN(C(=O)c2ccco2)Cc2nccn2C1 (stereo not shown) : -1.476%
- O=C(O)C(F)(F)F.O=C(O)C(F)(F)F.[H][C@@]12COC[C@H](C(=O)NCc3ccccn3)[C@]1([H])CN(Cc1ccoc1)C2 : -5.852% and -8.484% and 1.371%

Source: ChEMBL document CHEMBL3988442, “University of Dundee, Small-Polar-MMV Screening Library” (2021).